No constants are given. Whether binding was seen depends on the method and setting. Some binding calls cover weakened binding; strength is not graded here.

By UniProt entry, the sequences of proteins in these tests, tags left out. Where a name states a change or a piece, a line headed by the entry shows the natural chain unless it says otherwise. Chains listed by the source or under a name are the forms on record and can include a tag or linker.
recombinant human mesothelin (Q13421, form named): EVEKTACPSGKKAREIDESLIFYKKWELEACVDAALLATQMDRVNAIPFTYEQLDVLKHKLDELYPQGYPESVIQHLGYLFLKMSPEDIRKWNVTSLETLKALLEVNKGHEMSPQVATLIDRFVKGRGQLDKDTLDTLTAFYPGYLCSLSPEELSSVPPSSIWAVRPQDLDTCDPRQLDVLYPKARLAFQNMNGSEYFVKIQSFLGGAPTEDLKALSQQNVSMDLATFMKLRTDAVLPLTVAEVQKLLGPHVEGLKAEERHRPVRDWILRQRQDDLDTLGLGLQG

This assay deals with recombinant human mesothelin (human) (UniProt Q13421). Nature of the assay: ELISA, coated recombinant human mesothelin, purified His/Flag scFv, anti-Flag-HRP detection. For orientation: An ELISA detects its analyte on a solid surface through an enzyme-linked reagent.

B1: human anti-mesothelin ScFv binder MH1P (scFv, not shown: small tags and cut ends)
scFv: QVQLQQSGPGLVKPSRTLSLTCAISGDSVSSNSAAWNWIRQSPSRGLEWLGRTYYRSKWYNDYAVSVKSRITINPDTSKNQFSLQLNSVTPEDTAVYYCARGKGGKKGGAFDIWGQGTMVTVSSGGGGSGGGGSGGGGSSSELTQDPAVSVALGQTVRITCQGDSLRSYYASWYQQKPGQAPVLVIYGKNNRPSGIPDRFSGSSSGNTASLTITGAQAEDEAEYYCSSSTRNHVFFGRGTKVTVLG
Take B1: the binding entry was “binds”.

B2: human anti-mesothelin ScFv binder M1-4S (scFv, not shown: small tags and cut ends)
scFv: EVQLVQSGGGLVQPGGSLRLSCAASGFTFDDYAMHWVRQAPGKGLEWVSGISWNSGSIGYADSVKGRFTISRDNAKNSLYLQMNSLRAEDTALYYCAKDLSSVAGPFNYWGQGTLVTVSSGGGGSGGGGSGGGGSSSELTQDPAVSVALGQTVRITCQGDSLRSYYASWYQQKPGQAPVLVIYGKNNRPSGIPDRFSGSSSGNTASLTITGAQAEDEADYYCNSRDSSGNHLVFGGGTQLTVLG
As to B2, the binding entry is “binds”.

B3: human anti-mesothelin ScFv binder MH2P (scFv, not shown: small tags and cut ends)
scFv: EVQLVQSGGGLVQPGRSQRLSCAASGFTFDDYAMHWVRQAPGKGLEWVSGISWNSGSIGYADSVKGRFTISRDNAKNSLYLQMNSLRAEDTALYYCAKDISSSAGNAFDIWGQGTMVTVSSGGGGSGGGGSGGGGSSSELTQDPAVSVALGQTVRITCQGDRLRSYYASWYQQKPGQAPVLVIYGKNNRPSGIPDRFSGSDSGDTASLTITGAQAEDEADYYCHSRDSGGNHVVFGGGTQLTVLG
Consider B3, for which the binding entry is on record as “binds”.

The record behind these values is patent US20180208645A1.
